Record: PubChem BioAssay AID743454 (Peter MacCallum Cancer Centre, 2014)
Here is one part, drawn at random, of about 18,000 reagents tested. 450 of them (2.5%) were called active. 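Single biological run; no consistent viability z cut-off exists, so the class columns, not z-scores, define the calls.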

Screen: 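Genes whose loss kills vorinostat-resistant colon cancer cells under vorinostat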 (primary screen)
System: human HCT116-VR colon cancer cells, selected for vorinostat resistance
Reagent: siRNA pool against human genes, 40 nM siRNA pool
Time to read-out: vorinostat for 24 h, read-out about 72 h after transfection
Conditions: vorinostat at 2.5 µM final
Detection: 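Cell viability by CellTiter-Fluor and caspase 3/7 activity by luminescence, each scaled to mock wells per plate, duplicates averaged, then robust z-scored over all plates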
Scale: viability robust z-score: higher = more viable cells than screen typical; caspase robust z-score: higher = more caspase 3/7 activity than screen typical
Rule for the call: 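Hits are knock-downs in viability class RV1/RV2 or caspase class CA1/CA2, excluding ones that killed cells in the no-drug cell-count arm; hits then retested with single siRNAs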

no.	gene	viability hit class	caspase hit class	viability robust z-score	caspase robust z-score	activity call
1	DNAJC30 (GeneID 84277)	no change	no change	0.8	0.26	inactive
2	CC2D1A (GeneID 54862)	no change	no change	-0.95	-0.6	inactive
3	INSL5 (GeneID 10022)	no change	no change	-0.42	1.29	inactive
4	TSPAN10 (GeneID 83882)	no change	no change	0.52	-0.97	inactive
5	TTC7A (GeneID 57217)	no change	no change	0.29	0.74	inactive
6	CEACAM6 (GeneID 4680)	no change	no change	-1.5	0.12	inactive
7	CBLIF (GeneID 2694)	no change	no change	1.47	0	inactive
8	CERS2 (GeneID 29956)	no change	no change	0.88	1.23	inactive
9	RERG (GeneID 85004)	no change	no change	0.38	-0.18	inactive
10	KANK1 (GeneID 23189)	no change	no change	0.02	-0.04	inactive
11	SLC35F5 (GeneID 80255)	no change	no change	0.82	-1.27	inactive
12	ST7L (GeneID 54879)	no change	no change	-1.4	0.18	inactive
13	PPP4C (GeneID 5531)	no change	no change	-0.31	0.62	inactive
14	IFT54 (GeneID 26146)	no change	no change	-0.54	0.93	inactive
15	MARVELD2 (GeneID 153562)	no change	no change	0.15	0.88	inactive
16	ACOT8 (GeneID 10005)	no change	no change	0.57	3.65	inactive
17	DNAJC18 (GeneID 202052)	no change	no change	1.1	-1.04	inactive
18	SPECC1 (GeneID 92521)	no change	no change	0.92	0.07	inactive
19	PSD (GeneID 5662)	no change	no change	-1.31	2.08	inactive
20	RPL36A (GeneID 6173)	no change	no change	-4.5	-0.6	inactive
21	PIGY (GeneID 84992)	no change	no change	0.87	-0.77	inactive
22	SELENBP1 (GeneID 8991)	no change	no change	-0.25	1.33	inactive
23	CSMD2 (GeneID 114784)	no change	no change	0.3	-0.43	inactive
24	LTK (GeneID 4058)	no change	no change	0.06	1.1	inactive
25	RAB14 (GeneID 51552)	no change	no change	0.57	-0.23	inactive
26	METTL5 (GeneID 29081)	no change	no change	1.34	-0.36	inactive
27	OSBP (GeneID 5007)	no change	no change	-0.41	-0.29	inactive
28	KCNT2 (GeneID 343450)	no change	no change	0.4	-0.98	inactive
29	SPATA6 (GeneID 54558)	no change	no change	0.72	-0.89	inactive
30	FYRD1 (GeneID 84897)	no change	no change	0.28	0.52	inactive
31	ZBTB38 (GeneID 253461)	RV2 (reduced viability)	no change	-3.41	1.12	active
32	OCIAD1 (GeneID 54940)	no change	no change	0.9	-0.18	inactive
33	CDC50A (GeneID 55754)	no change	no change	0.4	0.69	inactive
34	HDAC6 (GeneID 10013)	no change	no change	-1.25	2.77	inactive
35	CCDC61 (GeneID 729440)	no change	no change	0.31	4.28	inactive
36	TBL1XR1 (GeneID 79718)	no change	no change	-1.08	0.28	inactive
37	SPIN2B (GeneID 474343)	no change	no change	0.26	-0.34	inactive
38	DYNC2I2 (GeneID 89891)	no change	no change	0.14	2	inactive
39	CYP4X1 (GeneID 260293)	no change	no change	1	0.48	inactive
40	CAPRIN2 (GeneID 65981)	no change	no change	-1	-0.2	inactive
41	SFSWAP (GeneID 6433)	no change	no change	-2.34	3.91	inactive
42	ADIRF (GeneID 10974)	no change	no change	-2.2	4.39	inactive
43	ACRBP (GeneID 84519)	no change	no change	-0.96	4.36	inactive
44	SLC41A1 (GeneID 254428)	no change	no change	0.91	-0.16	inactive
45	SELENOI (GeneID 85465)	no change	no change	0.38	-0.31	inactive
46	ANKRD54 (GeneID 129138)	no change	no change	-0.44	-0.04	inactive
47	CHD8 (GeneID 57680)	no change	no change	-0.58	2.21	inactive
48	MYLIP (GeneID 29116)	no change	no change	-0.18	-0.9	inactive
49	TAFAZZIN (GeneID 6901)	no change	no change	0.65	-0.23	inactive
50	MAOA (GeneID 4128)	no change	no change	-2.15	-0.59	inactive
51	TLCD4 (GeneID 148534)	no change	no change	0.09	-1.13	inactive
52	PBX4 (GeneID 80714)	no change	no change	0.82	-0.84	inactive
53	MBD4 (GeneID 8930)	no change	no change	1.73	-0.44	inactive
54	NEO1 (GeneID 4756)	RV2 (reduced viability)	no change	-3.02	-0.62	active
55	SPAG8 (GeneID 26206)	no change	no change	0.48	-0.63	inactive
56	MAPK8IP2 (GeneID 23542)	no change	no change	-0.43	-0.49	inactive
57	H3C7 (GeneID 8968)	no change	no change	0.16	1.28	inactive

Reagents listed above marked active:
gene	viability hit class	caspase hit class	viability robust z-score	caspase robust z-score	activity call
ZBTB38 (GeneID 253461)	RV2 (reduced viability)	no change	-3.41	1.12	active
NEO1 (GeneID 4756)	RV2 (reduced viability)	no change	-3.02	-0.62	active
